Reference: PubChem BioAssay AID686937 (Drosophila RNAi Screening Center, 2013)

Purpose: 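Genes in the fly needed for secretion of protein constitutively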 (primary screen)
System: Drosophila S2 cells expressing secreted horseradish peroxidase
Reagent: long dsRNA against Drosophila genes
Duration: about 5.5 days (5 days dsRNA, then 12 h reporter induction)
Treatment: reporter expression induced after 5 days of dsRNA, read 12 h later; inducer not stated
Measured: 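After 5 days of dsRNA and 12 h of reporter induction, medium peroxidase read by chemiluminescence and scored as per-plate z-score; higher values mean more reporter released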
Scale: z-score: higher = more reporter secreted into medium
The screen tested about 23,000 reagents; shown is a random part of those with a known target gene and a result. 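Reduced-secretion tags in replicate 1 do not always agree with the z-scores; no criterion for assigning the tags was given.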 Names joined by + are all predicted targets of the reagent. Not all columns of the deposit are shown. Not given: the amount of reagent.

| gene knocked down | amplicon | z-score, replicate 1 | z-score, replicate 2 | z-score, replicate 3 |
| --- | --- | --- | --- | --- |
| Pka-C3 | DRSC09402 | 0.46 | 0.28 | – |
| Pka-C3 | DRSC11254 | 0.18 | -0.39 | – |
| CtsL4 | DRSC02849 | 0.18 | 0.16 | – |
| CG10307 | DRSC04057 | 0.25 | 0.45 | – |
| Mec2 | DRSC20054 | 0.14 | 0.13 | – |
| XNP | DRSC15594 | 0.29 | 0.41 | – |
| Gli | DRSC03332 | -0.04 | 0.27 | – |
| cn | DRSC07594 | -0.07 | -0.15 | – |
| CG12020 | DRSC08226 | 0.25 | 0.32 | – |
| CG34161 | DRSC01132 | 0.13 | -0.05 | – |
| Npc2b | DRSC15464 | 0.16 | 0.39 | – |
| lncRNA:CR43409 | DRSC01164 | 0.62 | -0.18 | – |
| CG40045 | DRSC21232 | 0.25 | 0.36 | – |
| CG14866 | DRSC14989 | 0.47 | 0.7 | – |
| CG6870 | DRSC02998 | 0.39 | 0.32 | – |
| Polr3H | DRSC10817 | -0.46 | 0.09 | – |
| Mtpalpha | DRSC01994 | 0.05 | 0.42 | – |
| Eip75B | DRSC09526 | 0.26 | 0.14 | – |
| Eip75B | DRSC11161 | -0.22 | -0.28 | – |
| CG7183 | DRSC16210 | 0.23 | 0.3 | – |
| CG2875 | DRSC18231 | 0.06 | 0.07 | – |
| CG17985 | DRSC06702 | 0.07 | 0.26 | – |
| Arms | DRSC03856 | 0.44 | 0.7 | 0.23 |
| Arms | DRSC03857 | 0.04 | 0.28 | – |
| Arms | DRSC04052 | 0.51 | 0.45 | – |
| Arms | DRSC04256 | -3.54 | -3.51 | – |
| CG10175 | DRSC13628 | 0.6 | 0.65 | – |
| CG10175 | DRSC14200 | 0.5 | 0.34 | – |
| CG10175 | DRSC21981 | 0.76 | 0.38 | – |
| ppk | DRSC03595 | -0.21 | 0.41 | – |
| alphaTub67C | DRSC11321 | -1.37 | -2.02 | – |
| chic | DRSC03507 | -0.12 | -0.39 | – |
| MFS1 | DRSC04115 | 0.06 | 0.22 | – |
| CG31115 | DRSC13692 | 0.03 | 0.41 | – |
| CG43134 | DRSC17318 | -1.07 | 0.15 | – |
| CG14722 | DRSC14944 | 0.29 | 0.22 | – |
| CG4597 | DRSC10432 | 0.22 | 0.33 | – |
| CG42588 | DRSC09820 | -0.63 | 0.28 | – |
| CG42588 | DRSC22121 | -0.14 | 0.05 | – |
| CR43670 + grp + CR43671 + 1 more | DRSC03541 | 0.14 | 0.26 | – |
| eEF1delta | DRSC02790 | 0.46 | 0.35 | – |
| Cdk5alpha | DRSC03290 | -0.54 | -0.34 | – |
| kst | DRSC08719 | 0.26 | 0.13 | – |

Already shown: entries from further up.
| gene knocked down | amplicon | z-score, replicate 1 | z-score, replicate 2 | z-score, replicate 3 |
| --- | --- | --- | --- | --- |
| XNP | DRSC15594 | 0.29 | 0.41 | – |
| Gli | DRSC03332 | -0.04 | 0.27 | – |
| cn | DRSC07594 | -0.07 | -0.15 | – |
| CG12020 | DRSC08226 | 0.25 | 0.32 | – |
| CG34161 | DRSC01132 | 0.13 | -0.05 | – |
| Npc2b | DRSC15464 | 0.16 | 0.39 | – |
| lncRNA:CR43409 | DRSC01164 | 0.62 | -0.18 | – |
| CG40045 | DRSC21232 | 0.25 | 0.36 | – |
| CG14866 | DRSC14989 | 0.47 | 0.7 | – |
| CG6870 | DRSC02998 | 0.39 | 0.32 | – |

Next results follow.
| gene knocked down | amplicon | z-score, replicate 1 | z-score, replicate 2 | z-score, replicate 3 |
| --- | --- | --- | --- | --- |
| inv | DRSC07633 | 0.56 | 0.44 | – |
| CG15140 | DRSC02440 | -0.03 | 0.27 | – |
| lncRNA:CR42859 | DRSC00103 | -0.39 | 0.03 | – |
| CG5793 | DRSC15874 | 0 | 0.11 | – |
| CG13841 | DRSC14691 | -0.27 | -0.95 | – |
| cv-c | DRSC14969 | 0.14 | 0.11 | – |
| cv-c | DRSC14970 | 0.54 | 0.27 | – |
| cv-c | DRSC14971 | -0.09 | -0.8 | – |
| cv-c | DRSC14972 | 0.46 | 0.63 | – |
| cv-c | DRSC14973 | -2.22 | -0.44 | – |
| cv-c | DRSC16428 | 0.61 | 0.84 | – |
| CG43088 | DRSC19055 | 0.3 | -0.48 | – |
| CG43088 | DRSC21407 | -0.63 | -0.13 | – |
| BomS1 | DRSC22678 | 0.39 | 0.27 | – |
| Cnb | DRSC08569 | 0.19 | 0.38 | – |
| Eglp4 | DRSC04438 | -0.11 | 0.08 | – |
| mRpS5 | DRSC21380 | 1.21 | 0.32 | – |
| Dip-C | DRSC15855 | 0.35 | 0.49 | – |
| mtg | DRSC16256 | 0.24 | 0.47 | – |
| Srp14 | DRSC15797 | -0.17 | 0.05 | – |
| ref(2)P | DRSC03601 | 1.65 | 0.36 | – |
| Muc26B | DRSC02322 | 0.18 | 0.24 | – |
| CG5846 | DRSC02904 | 0.38 | 0.41 | – |
| RpS10b | DRSC19561 | -0.12 | -0.28 | 0.48 |
| Datp | DRSC01102 | 0.61 | 0.24 | – |
| CG8036 | DRSC16366 | -0.72 | -1.01 | – |
| Vha100-4 | DRSC16282 | 0.38 | 0.52 | – |
| CG12929 | DRSC06242 | 0.15 | 0.44 | – |
| rha | DRSC17044 | 0.29 | 0.48 | – |
| CG1979 | DRSC12495 | 0.41 | -0.09 | – |
| SCAP | DRSC04869 | 0.09 | 0.2 | – |
| SCAP | DRSC04907 | -2.7 | -2.33 | – |
| CG13578 | DRSC04214 | -0.28 | -0.08 | – |
| mkg-p | DRSC10777 | -0.53 | -0.04 | – |
| CG17999 | DRSC04300 | 0.25 | 0.47 | – |
| CG6497 | DRSC10654 | 0.26 | -0.32 | – |
| CG6497 | DRSC21469 | 1.56 | 1.56 | – |
| D | DRSC11132 | 0.23 | 0.49 | – |
| Clp | DRSC00746 | -0.45 | -0.62 | – |
